Source: ChEMBL document CHEMBL3988442, “University of Dundee, Small-Polar-MMV Screening Library” (2021).

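Viability assay of Plasmodium falciparum sporozoites; the read-out is not stated. The concentration is filed as 10 mM, unlikely as a test dose, so the dose is not known. The record gives no direction; compounds that gave an IC50 in retests scored well above the rest, so higher reads as lower viability. Strong results were mostly tested again. About 34,000 compounds were tested under these conditions; 0.84% (about 280) showed 50% or more at least once.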

Values are the deposited “Percent Effect”, in %.
The controls that fix the scale are not given in the record; negative values are as filed.
The compounds are a random part of those screened.
Two or more numbers in one place are separate tests of the same structure; such repeats can differ widely.

{"smiles": "CC(NC(=O)N1CCN(c2ccccc2)CC1)c1nncn1C", "stereo": "centres unmarked", "effect": -7.598}
{"smiles": "Cc1nc(CN(C)C2CCN(CC(=O)N3CCOCC3)C2)no1", "stereo": "centres unmarked", "effect": 1.754}
{"smiles": "O=C(CCn1ccnc1)N1CC[C@H](Oc2ccc(F)cc2)[C@@H](O)CC1", "effect": 4.427}
{"smiles": "COCc1cc(N(C)CCC(O)c2ccccc2)n2nccc2n1", "stereo": "centres unmarked", "effect": -12.15}
{"smiles": "Cc1cc(NC(=O)CN2CCN(C3CCCC3)C(=O)C2)nn1C", "effect": 7.122}
{"smiles": "OCC1CCCN1c1cc(NCCNc2ccccn2)ncn1", "stereo": "centres unmarked", "effect": "68.12 and 39.62 and 4.663"}
{"smiles": "CCOC(=O)c1ccc(CNC(=O)c2ccncc2Cl)o1", "effect": -0.4571}
{"smiles": "O=C(O)C(F)(F)F.O=C(O)C(F)(F)F.[H][C@]12CC(Cn3cccn3)N(C)[C@@]1([H])CCN(C(=O)c1cccc(C#N)c1)C2", "stereo": "some centres unmarked", "effect": -2.417}
{"smiles": "Fc1ccc(-c2nnc(CN3CCCC3Cn3cncn3)o2)cc1", "stereo": "centres unmarked", "effect": 8.667}
{"smiles": "O=C(c1ccc2c(c1)CCCC2)N1CCOCC1c1ncon1", "stereo": "centres unmarked", "effect": -7.68}
{"smiles": "O=C(CC1CCC2(CC1)CCN(Cc1cccnc1)CC2)N1CC=CC1.O=C(O)C(F)(F)F.O=C(O)C(F)(F)F", "effect": -3.772}
{"smiles": "CC(Cn1cncc1-c1cnn(C2CCCCC2)c1)N1CCCCC1.Cl", "stereo": "centres unmarked", "effect": 5.066}
{"smiles": "COc1ccccc1CC(C)(C)NC(=O)CNS(C)(=O)=O", "effect": 1.427}
{"smiles": "O=C(O)C(F)(F)F.O=C(O)C(F)(F)F.O=C(O)C(F)(F)F.[H][C@]12C[C@@H](Cn3cncn3)N(C(C)C)[C@@]1([H])CCN(Cc1nccn1C)C2", "effect": -0.2555}
{"smiles": "c1cc(CN2CCCC(c3ccnc4nccn34)C2)ccn1", "stereo": "centres unmarked", "effect": 2.525}
{"smiles": "[H][C@@]12CCN(C(=O)c3cscn3)[C@@]1([H])CC(=O)N2Cc1cccnc1", "effect": 5.166}
{"smiles": "CN(C)c1ccc(CCNC(=O)C2CCC(=O)N(C3CCCC3)C2)cc1", "stereo": "centres unmarked", "effect": 3.004}
{"smiles": "Cc1noc(C)c1CN1CCC(N(C)Cc2nnc(C3CC3)n2C)C1", "stereo": "centres unmarked", "effect": 5.149}
{"smiles": "Fc1cccc(Oc2ccc(CNCC3CNc4ccnn4C3)cn2)c1", "stereo": "centres unmarked", "effect": 19.79}
{"smiles": "COCCOc1ccc(NC(=O)N2CCCC2c2cc(C)no2)cn1", "stereo": "centres unmarked", "effect": -17.57}
{"smiles": "CN(Cc1ccncc1)C(=O)NC1CCCN(c2ncccn2)C1", "stereo": "centres unmarked", "effect": 2.946}
{"smiles": "CC(C(=O)NCc1ccnc(N2CCCCCC2)c1)n1cccn1", "stereo": "centres unmarked", "effect": -1.754}
{"smiles": "CCCN1CCC(c2nc3ccc(NCc4cccnc4)cn3n2)CC1.O=C(O)C(F)(F)F.O=C(O)C(F)(F)F.O=C(O)C(F)(F)F", "effect": -0.2555}
{"smiles": "c1cncc(-c2nc(C3CC3)ncc2-c2ccnc(N3CCCC3)n2)c1", "effect": 3.98}
{"smiles": "CN(C)C(=O)CN1C(=O)CCC12CCN(Cc1cccs1)CC2.O=C(O)C(F)(F)F", "effect": -5.415}
{"smiles": "NC(=O)C1CN(C(=O)c2ccc(F)cc2)CCN1CCc1ccccc1", "stereo": "centres unmarked", "effect": 1.319}
{"smiles": "O=C(c1cccnc1)N1CCCC(Cc2nccs2)C1", "stereo": "centres unmarked", "effect": 18.71}
{"smiles": "O=C(c1cnc(-c2ccccn2)s1)N1CCCC1Cn1cccn1", "stereo": "centres unmarked", "effect": 5.608}
{"smiles": "O=C(NC1CCS(=O)(=O)C1)c1ccc(SCc2cscn2)cc1", "stereo": "centres unmarked", "effect": -7.119}
{"smiles": "COCCNC(=O)N1CCSC2(CCCCC2)C1", "effect": -2.105}
{"smiles": "Cc1cc(C)n(C2CN(CC(=O)NCC(C)(C)N3CCOCC3)C2)n1", "effect": -2.148}
{"smiles": "Cc1nn(C)cc1C(=O)N1CCCC(c2nccn2Cc2cscn2)C1", "stereo": "centres unmarked", "effect": -12.19}
{"smiles": "CCOc1ccc(C2CCCN2C(=O)NCCn2ccnc2)cc1", "stereo": "centres unmarked", "effect": 7.457}
{"smiles": "O=C(O)C(F)(F)F.[H][C@@]12CCN(CC3CCC3)C[C@]1([H])[C@H](C(=O)NC1CC1)CCO2", "effect": 5.196}
{"smiles": "O=C(O)C(F)(F)F.O=S(=O)(C1CC1)N1CC[C@]2(C[C@@H](Oc3ncccc3F)CO2)C1", "effect": -5.353}
{"smiles": "O=C(c1cnc2c(cnn2C2CCCC2)c1)N1CCN(CCO)CC1", "effect": 13.06}
{"smiles": "CS(=O)(=O)NC(=O)c1ccn(-c2ccccc2Cl)n1", "effect": -2.336}
{"smiles": "CC(C)NC(=O)C1CN(C(=O)COc2ccccc2)CC12CCOCC2", "stereo": "centres unmarked", "effect": -13.91}
{"smiles": "Cc1cc(C2CCCN(CCCNS(C)(=O)=O)C2)n[nH]1", "stereo": "centres unmarked", "effect": -1.069}
{"smiles": "CSc1ccccc1CN1CCn2nc(CNC(C)=O)cc2C1", "effect": -7.91}
{"smiles": "CCC(NC(=O)CN(C)Cc1ccc(C)o1)c1ccc(Br)cc1", "stereo": "centres unmarked", "effect": 3.638}
{"smiles": "O=C(O)C(F)(F)F.[H][C@@]12COC[C@]1(COCC(=O)N(C)C)CN(CCc1ccccc1)C2", "effect": -4.474}
{"smiles": "NCc1ccnc(Oc2ccc(F)cc2)c1", "effect": -3.581}
{"smiles": "Cc1nc(CN2CCCC(NCc3cnc(C(C)(C)C)s3)C2)no1", "stereo": "centres unmarked", "effect": 8.099}
{"smiles": "Cn1ncc2c(N3CCS(=O)(=O)CC3)nc(-c3cccnc3)nc21", "effect": 8.787}
{"smiles": "CC1(C)OCC(CNC(=O)c2cnn(-c3cccc(Cl)c3Cl)c2N)O1", "stereo": "centres unmarked", "effect": -14.96}
{"smiles": "CNC(=O)CN1CCCC12CCN(C(=O)c1ccc(F)cc1)CC2.O=C(O)C(F)(F)F", "effect": 6.035}
{"smiles": "COCCN1CCC(CNC(=O)C2(NC(C)=O)CCCCC2)CC1", "effect": 5.451}
{"smiles": "CC(C)(C)N1CC(C(=O)N2CCN(CCc3ccccc3)CC2)CC1=O", "stereo": "centres unmarked", "effect": -7.082}
{"smiles": "CN(C)C(=O)CCCNC(=O)C(c1cccc(F)c1)N(C)C", "stereo": "centres unmarked", "effect": -9.059}
{"smiles": "O=C(NCCn1ccnc1)c1csc2c1CCCC2", "effect": -10.54}
{"smiles": "O=C(c1ccoc1)N1CCCn2cnc(COCC3CC3)c2C1", "effect": 3.2}
{"smiles": "CN(C)C(=O)COc1ccccc1CN1CCCC2(C1)CN(C)C(=O)O2", "stereo": "centres unmarked", "effect": -7.895}
{"smiles": "C[C@@H]1CN(C(=O)c2cccc(F)c2)C[C@]12CCN(c1ccsc1)C2=O", "effect": -12.46}
{"smiles": "Cc1c(C(=O)NCCC(=O)N2CCCC2)cccc1-c1ccccn1", "effect": -6.267}
{"smiles": "CCOCn1cc(NC(=O)C2CCN(S(C)(=O)=O)CC2)cn1", "effect": 3.349}
{"smiles": "CCOCCN1CCC(c2cnccn2)CC1", "effect": 15.67}